Assay results as given in PubChem BioAssay AID1671190 (National Center for Advancing Translational Sciences (NCATS), 2021).
“And” between values parts separate entries of the source, which are not always exact repeats. Equal values may be shown once. Among all 580,000 compounds or so, about 6,100 (1.1%) were called active. Inconclusive means that the source gave no clear call. Such entries were picked first, then a sample of the others. Calls come from the whole dose curve; as a rule, active = well fitted inhibition curve with a large enough effect; inconclusive = small, poorly fitted or top-dose-only effect, or another doubt; inactive = no such curve, though single readings can be large or run the other way. Potencies beside an inconclusive call are fits to weak or partial responses and may not hold up.

Amino acid sequences for entries named in this document (tags omitted). A change or cut given only in a name is not applied to a line headed by its entry.
UniProt P18054: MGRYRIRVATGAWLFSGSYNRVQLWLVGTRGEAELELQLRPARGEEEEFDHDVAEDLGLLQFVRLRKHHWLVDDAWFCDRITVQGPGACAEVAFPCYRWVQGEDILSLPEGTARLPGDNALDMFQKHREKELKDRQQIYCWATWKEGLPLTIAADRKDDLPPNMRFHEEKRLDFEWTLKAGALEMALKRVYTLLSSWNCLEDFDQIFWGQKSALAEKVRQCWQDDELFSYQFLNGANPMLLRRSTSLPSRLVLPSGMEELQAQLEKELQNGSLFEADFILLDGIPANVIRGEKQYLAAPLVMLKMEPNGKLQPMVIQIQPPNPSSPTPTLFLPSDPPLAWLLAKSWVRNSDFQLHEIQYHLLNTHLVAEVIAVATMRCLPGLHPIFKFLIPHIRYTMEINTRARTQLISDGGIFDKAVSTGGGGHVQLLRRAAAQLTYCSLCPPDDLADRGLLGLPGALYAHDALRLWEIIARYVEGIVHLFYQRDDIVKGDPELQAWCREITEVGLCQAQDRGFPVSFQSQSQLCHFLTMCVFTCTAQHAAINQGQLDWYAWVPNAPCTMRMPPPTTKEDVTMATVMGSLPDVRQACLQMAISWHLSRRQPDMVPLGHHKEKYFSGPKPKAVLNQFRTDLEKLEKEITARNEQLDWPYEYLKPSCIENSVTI

target: Polyunsaturated fatty acid lipoxygenase ALOX12 (Homo sapiens) (UniProt P18054); assay: Primary qHTS assay for inhibitors of human arachidonate 12S-lipoxygenase (ALOX12): Round 2; conditions: purified 12hLO, xylenol orange hydroperoxide absorbance; activity change, negative = inhibition: at 108 µM (top of the series) unless noted
Procedure, shortened: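 Purified human 12hLO at 150 nM in 25 mM Hepes, 0.01% Triton X-100, pH 7.0, preincubated 15 min at room temperature with compound. Reaction started with 40 uM arachidonic acid, 30 min at room temperature. Hydroperoxide measured by Fe-xylenol orange, 573/405 nm absorbance ratio.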
% is set by controls: 0 for no effect and ±100 for the full control effect; potency is the fitted concentration of half-maximal effect.

Row | Structure (SMILES) | Potency | activity change, negative = inhibition
1 | CN1c2ccccc2[C@]23CCN(S(=O)(=O)C(F)(F)F)C2=Cc2ccccc2[C@H]13 | inconclusive: 50.1 µM [inhibitor, partial curve, poor fit] | –
2 | CN1CC(=O)N(C2CCCNCC2)Cc2c(NCCCO)ncnc21 (configuration not stated) | inconclusive: 3.98 µM [inhibitor, single point] | –
3 | CC(=O)C1=C(C)OC2(O)c3ccccc3C(=O)C12O (configuration not stated) | inconclusive: 44.7 µM [inhibitor, partial curve, poor fit] | –
4 | O=S(=O)(NCC1COc2ccccc2O1)c1ccccc1F (configuration not stated) | inconclusive: 50.1 µM [inhibitor, partial curve, poor fit] | –
5 | Cc1ccc(C(=O)NCC(=O)N2CCN(c3ccccc3)CC2)cc1 | inconclusive: 100 µM [inhibitor, partial curve, poor fit] | –
6 | O=C(O)CSc1cccc2cccnc12 | inactive and inconclusive: 22.4 µM [inhibitor, full curve, poor fit] | –
7 | COc1ccc(C(=O)N/C(=C\c2cn(C)c3ccccc23)C(=O)N2CCN(C)CC2)cc1OC | inconclusive: 10 µM [inhibitor, full curve] | –
8 | CCOc1ccc(C(=O)Nc2sc(C(=O)OC(C)C)c(C)c2C#N)cc1 | inactive | –
9 | COC(=O)CCC1(C)C(=C(C)C)CCC(C)C1COc1ccc2ccc(=O)oc2c1 (configuration not stated) | inactive | –
10 | Cc1ccc(C)c(CSc2cn(CCNC(=O)c3ccccc3F)c3ccccc23)c1 | inactive | –
11 | Cc1cc(Cl)ccc1Oc1ccc(C(N)=O)cc1[N+](=O)[O-] | inconclusive: 200 µM [inhibitor, partial curve, poor fit] | –
12 | Cc1cc(NC(=O)c2ccc(C)s2)n(-c2nc3ccccc3[nH]2)n1 | inactive | –
13 | C=C(C)CN1CCN(c2nc3c(c(=O)[nH]c(=O)n3C)n2Cc2cc(C)ccc2C)CC1 | inconclusive: 0.224 µM [inhibitor, full curve, poor fit] | –
14 | COc1ccc(CCNC(=O)CCSc2nc(Cl)nc3nc[nH]c23)cc1 | inactive | –
15 | CCOc1ccc(NC(=O)CN(C)C(=O)CCCOc2ccc(Br)cc2)cc1OCC | inconclusive: 63.1 µM [inhibitor, partial curve, poor fit] | –
16 | COc1ccc(N(C)C(=O)Cc2c(C(=O)O)[nH]c3ccccc23)c(OC)c1 | inconclusive: 44.7 µM [inhibitor, single point] | –
17 | CC(=O)NC1(C)CCN(Cc2ccc(-c3ccccc3OCc3ccccc3)cc2)C1 (configuration not stated) | inconclusive: 25.1 µM [inhibitor, full curve] | –
18 | O=C(O)C1CCN(C(=O)CCl)CC1 | inconclusive: 126 µM [inhibitor, single point] | –
19 | Cc1cc2occ(CC(=O)Nc3cccc(S(=O)(=O)N4CCOCC4)c3)c2cc1C(C)C | inconclusive: 50.1 µM [inhibitor, single point] | –
20 | Cc1ccc(C(=O)C2=C(O)C(=O)N(CC3CCCO3)C2c2ccccc2F)o1 (configuration not stated) | inconclusive: 31.6 µM [inhibitor, partial curve, poor fit] | –
21 | Cc1cc(NC(=O)CN2CCN(c3ncccn3)CC2)no1 | inconclusive: 0.224 µM [inhibitor, full curve, poor fit] | –
22 | CC(NC1CC1)c1ccc(Cl)cc1 (configuration not stated) | inconclusive: 50.1 µM [inhibitor, partial curve, poor fit] | –
23 | CC(C)C(=O)/C(C#N)=C\c1ccc(-c2ccccc2F)o1 | inconclusive: 50.1 µM [inhibitor, partial curve, poor fit] | –

Reprinted: compounds 1 to 3
Row | Structure (SMILES) | Potency | activity change, negative = inhibition
1 | CN1c2ccccc2[C@]23CCN(S(=O)(=O)C(F)(F)F)C2=Cc2ccccc2[C@H]13 | inconclusive: 50.1 µM [inhibitor, partial curve, poor fit] | –
2 | CN1CC(=O)N(C2CCCNCC2)Cc2c(NCCCO)ncnc21 (configuration not stated) | inconclusive: 3.98 µM [inhibitor, single point] | –
3 | CC(=O)C1=C(C)OC2(O)c3ccccc3C(=O)C12O (configuration not stated) | inconclusive: 44.7 µM [inhibitor, partial curve, poor fit] | –

(next part)

Row | Structure (SMILES) | Potency | activity change, negative = inhibition
24 | Cc1cccc(OCCSc2nnc(-c3ccoc3C)n2C)c1 | inconclusive: 39.8 µM [inhibitor, partial curve, poor fit] | –
25 | O=C1OCC2=C1C(c1cccs1)NC(=O)N2CC(=O)N1CCCCC1 (configuration not stated) | inconclusive: 5.62 µM [inhibitor, full curve] | –
26 | Cc1ccc(OCCC(=O)N2CCN(c3ccc(O)cc3)CC2)cc1 | inconclusive: 44.7 µM [inhibitor, partial curve, poor fit] | –
27 | Cc1ccc(NC(=O)CN2C(=O)NC(C)(c3ccc(Cl)cc3)C2=O)c(Br)c1 (configuration not stated) | inconclusive: 39.8 µM [inhibitor, partial curve, poor fit] | –
28 | CCCN1CCC(NC(=O)Nc2ccc([N+](=O)[O-])cc2)CC1 | inconclusive: 100 µM [inhibitor, single point] | –
29 | N#Cc1cccc(CN2CC[C@@H]3OCC(=O)N(Cc4c[nH]c5ccccc45)[C@H]3CC2)c1 | inconclusive: 63.1 µM [inhibitor, partial curve, poor fit] | –
30 | Cc1cc(C)c2nc(NC(=O)C3CC(=O)N(Cc4ccco4)C3)sc2c1 (configuration not stated) | inconclusive: 100 µM [inhibitor, single point] | –
31 | COCCCNC(CC(=O)Nc1ccc(OC)cc1OC)C(=O)O (configuration not stated) | inconclusive: 1 µM [inhibitor, full curve, poor fit] | –
32 | Cc1nn(CCC#N)c(C)c1[C@@H]1C=C[C@@H](NCc2ccc(C(C)C)cc2)C1 | inactive | –
33 | Brc1ccc(-c2cnc(-c3ccccc3)o2)cc1 | inactive | –
34 | O=C(NC1CCCCCC1)C(Cc1ccccc1)NS(=O)(=O)c1ccc(Br)s1 (configuration not stated) | inconclusive: 141 µM [inhibitor, single point] | –
35 | Cc1cc(NC2=CC(=O)C(=O)c3ccccc32)no1 | active: 39.8 µM | –
36 | CC1CCN(c2ccc(C(=O)O)cc2NS(=O)(=O)c2ccc(Br)s2)CC1 | inconclusive: 2.24 µM [inhibitor, full curve, poor fit] | –
37 | CCOC(=O)c1cc(-c2ccc([N+](=O)[O-])cc2)nc2c1c(=O)[nH]c(=O)n2Cc1ccccc1 | inactive | –
38 | O=C(Nc1nc2ccc(F)cc2s1)c1ccc(CN2CCCCC2)cc1 | inactive | –
39 | CC(C)NC[C@@H](O)c1ccc(O)c(O)c1 | inconclusive: 7.94 µM [inhibitor, partial curve, poor fit] | –
40 | CCOC(=O)Oc1ccc2oc(=O)cc(C)c2c1 | inactive | –
41 | COc1ccc(C(NC(=O)c2cccnc2)c2cc(Cl)c3cccnc3c2O)cc1OC (configuration not stated) | inactive | –
42 | CN(C)c1ccc(/C=N/n2c(-c3ccccc3Br)n[nH]c2=S)cc1 | inactive | –
43 | OC(CN1CCC(Cc2ccc(F)cc2)CC1)c1ccc(Cl)cc1 (configuration not stated) | inactive | –
44 | Cc1ccc(C(=O)N2CCN(c3ncccn3)CC2)cc1 | inactive | –
45 | CCOc1ccc(NC(=O)NCC2CCN(c3ccc(OC)cc3)C2)cc1 (configuration not stated) | inconclusive: 126 µM [inhibitor, partial curve, poor fit] | –
46 | COC(=O)c1ccc(NC(=O)COc2ccc3c(C)cc(=O)oc3c2)cc1 | inactive | –

Row | Structure (SMILES) | Potency | activity change, negative = inhibition
47 | Cc1ccc(/C(O)=C2/C(=O)C(=O)OC2c2ccc(Cl)cc2)cc1 (configuration not stated) | inconclusive: 10 µM [inhibitor, full curve, poor fit] | –
48 | COc1ccc(C2CC(=O)N3CN(Cc4ccccc4)CSC3=C2C#N)c(OC)c1 (configuration not stated) | active: 5.62 µM | –
49 | Cc1ccc2occ(CC(=O)N3CCN(c4cccc(Cl)c4)CC3)c2c1 | inconclusive: 112 µM [inhibitor, partial curve, poor fit] | –
50 | COc1ccc(N/C=C2\CCc3ccccc3C2=O)cc1 | inconclusive: 44.7 µM [inhibitor, partial curve, poor fit] | –
51 | CCN(CC(=O)Nc1ccc(NC(C)=O)cc1)Cc1c(O)ccc2cc(Br)ccc12 | inconclusive: 4.47 µM [inhibitor, full curve, poor fit] | –
52 | CC1(C(=O)NS(=O)(=O)c2ccccc2Cl)CCN1C(=O)c1ccco1 (configuration not stated) | inactive | –
53 | COC(=O)CNC(=O)COC(=O)c1cc(=O)c2ccccc2o1 | inconclusive: 0.631 µM [inhibitor, full curve, poor fit] | –
54 | Cc1ccc(N2CCN(CC(O)COc3cccc4ccccc34)CC2)cc1 (configuration not stated) | inconclusive: 112 µM [inhibitor, single point] | –
55 | Cn1c(=O)c2cc(S(=O)(=O)NC(C(=O)N3CCCCCC3)c3ccccc3)ccc2n(C)c1=O (configuration not stated) | inconclusive: 79.4 µM [inhibitor, single point] | –
56 | COc1ccc(CCn2nnnc2C(c2ccccc2)N2CCN(C)CC2)cc1OC (configuration not stated) | inconclusive: 35.5 µM [inhibitor, partial curve, poor fit] | –
57 | CCC(c1nnnn1CCOC)N1CCN(C(=O)c2ccco2)CC1 (configuration not stated) | inconclusive: 10 µM [inhibitor, full curve, poor fit] | –
58 | CC1CCCN(CCCOc2ccc(Cl)cc2Br)C1 (configuration not stated) | inconclusive: 1.78 µM [inhibitor, full curve] | –
59 | Cc1ccc(OCc2nnc(-c3ccccc3)o2)cc1 | inactive | –
60 | Cc1ccc(C(=O)N2c3ccccc3CC2C)o1 (configuration not stated) | inactive | –
61 | COCCCN1CCN(C2Cc3ccccc3Sc3ccc(Cl)cc32)CC1 (configuration not stated) | inconclusive: 50.1 µM [inhibitor, partial curve, poor fit] | –
62 | O=c1n(-c2ccc([N+](=O)[O-])cc2)nc2n1CCN(CC1CC1)C2 | inconclusive: 56.2 µM [inhibitor, full curve] | –
63 | COC1C(=O)N(c2cccc(F)c2)C12CCN(C(=O)c1cc3ccccc3[nH]1)CC2 (configuration not stated) | inconclusive: 56.2 µM [inhibitor, partial curve, poor fit] | –
64 | COc1ccc(NC(=O)C(C)Nc2ccc3oc(C)nc3c2)cc1OC (configuration not stated) | inconclusive: 17.8 µM [inhibitor, full curve, poor fit] | –
65 | N#Cc1ccc(OCCOc2cccc(C#N)c2)cc1 | inactive | –
66 | O=C(Cc1c[nH]c2ccccc12)Nc1cccc(F)c1 | – | inconclusive: -52.8% [inhibitor]
67 | CC(Oc1ccccc1Br)C(=O)N1CCc2ccccc21 (configuration not stated) | inconclusive: 89.1 µM [inhibitor, single point] | –
